{
  "source": "paper doi:10.1101/589754",
  "biological_target": "T1, His6-mPOU WT (POU6F1/Brn-5), unphosphorylated or mock-phosphorylated (UniProt Q14863)",
  "T1 sequence (looked up, limits assumed)": "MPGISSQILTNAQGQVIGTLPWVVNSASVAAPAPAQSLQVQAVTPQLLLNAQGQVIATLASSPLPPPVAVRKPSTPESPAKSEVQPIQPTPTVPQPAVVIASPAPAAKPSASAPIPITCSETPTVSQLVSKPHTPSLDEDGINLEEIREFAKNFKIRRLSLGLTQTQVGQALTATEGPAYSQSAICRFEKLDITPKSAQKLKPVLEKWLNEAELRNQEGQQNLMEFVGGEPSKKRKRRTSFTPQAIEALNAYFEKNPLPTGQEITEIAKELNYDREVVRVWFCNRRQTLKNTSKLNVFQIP",
  "test": "EMSA",
  "note": "The exact form of at least one protein or probe is not confirmed. At least one verdict rests on a figure or table, not on a statement of the authors. Tags and fusion partners may be left off the protein sequences shown.",
  "data": [
    {"sequence": "GATCTGCTCCTGCATGCCTAATAGG (double strand) [Brn5 (mPOU) promoter probe]", "values": [
      {"measurement": "binding result", "setting": "WT, mutant comparison", "value": "binds"},
      {"measurement": "binding result", "setting": "mock phosphorylation", "value": "binds"}
    ]}
  ]
}
